US9580459B2, “Water-soluble ursodeoxycholic acid prodrugs” (Metselex, Inc., priority 2013, dated 2017)
For at least one compound, name, drawing or mass did not settle the structure. Some of these results come from one statement about several compounds together.

Key:
primary rat hepatocytes [1] = test: TGFβ1-induced loss of cellular viability (CellTiter-Fluor viability assay); type: cell-based
primary rat hepatocytes [2] = test: TGFβ1-induced apoptosis by nuclear morphology (Hoechst labeling); type: cell-based; settings: 100 μM, 12 hours, then 1 nmol/L TGF-β1 24 hours; alkaline phosphatase added for compound 19d; p<0.05
[3] = test system: caspase-3/7 activity in primary rat hepatocytes; test: TGFβ1-induced caspase-3-like activity (Caspase-Glo 3/7 Assay); type: cell-based; settings: 100 μM, 12 hours, then 1 nmol/L TGF-β1 24 hours; alkaline phosphatase added for compound 19d; p<0.05
[4] = chemical stability in solution (D2O, NMR); type: physicochemical
[5] = aqueous solubility of the prodrugs; type: physicochemical; settings: water; rapidly dissolving at all concentrations tested
Experimental: To obtain the 7-substituted phosphate ester prodrug of UDCA, benzyl ester 1 was treated with benzyl chloroformate and pyridine in dichloromethane as shown in FIG. 2. This led to a mixture of products, including 3-Cbz-protected alcohol (41%) (compound 4), 7-Cbz-protected alcohol (10%) (compound 5), and recovered starting material (41%). These products were readily separated by column chromatography, which allowed definitive confirmation of the regiochemistry of the prodrugs by ^1H NMR analysis, as the signal of the proton next to the Cbz-protected alcohol (Ha in FIG. 2) was a dddd in the major mono-substituted product (consistent with compound 4) and a ddd in the minor mono-substituted product (consistent with compound 5). Compound 4 was then converted into a 7-substituted phosphate ester prodrug (compound 7) using dibenzyl N,N-diethylphosphoramidite followed by oxidation with H2O2 and then Pd/C catalyzed debenzylation. Similar standard conditions converted compound 5 into the same 3-substituted phosphate ester prodrug (compound 3) that was obtained in FIG. 1. Both phosphate prodrugs (compound 3 and compound 7) were highly aqueously soluble, rapidly dissolving at all concentrations tested (up to 20 mg/mL), and were stable in solution for extended periods of time (>6 months) without any apparent decomposition. […]

Structure (SMILES) | inhibition of TGFβ1-induced loss of cellular viability (primary rat hepatocytes [1]; 100 μM, 12 hours, then 1 nmol/L TGF-β1 24 hours, alkaline phosphatase added for compound 19d, p<0.05) | effect of alkaline phosphatase (AP) in the culture medium on cytoprotective properties (primary rat hepatocytes [1]; presence or absence of 3 U/ml alkaline phosphatase, preliminary results) | protection against TGFβ1-induced nuclear fragmentation (primary rat hepatocytes [2]) | protection against TGFβ1-induced caspase-3-like activation [3] | time stable in solution without any apparent decomposition [4] [months] | aqueous solubility [5] [mg/mL]
C[C@H](CCC(=O)O)[C@H]1CC[C@H]2[C@@H]3[C@@H](O)C[C@@H]4C[C@H](O)CC[C@]4(C)[C@H]3CC[C@]12C [UDCA, Ursodeoxycholic acid] | at least 50% | does not significantly change | 50-80% | 40-70% | – | –
C[C@H](CCC(=O)O)[C@H]1CC[C@H]2[C@@H]3[C@@H](O)C[C@@H]4C[C@H](OP(=O)([O-])[O-])CC[C@]4(C)[C@H]3CC[C@]12C.[Na+].[Na+] [compound 3, 3-(Phosphonatooxy)-ursodeoxycholic acid sodium salt] | – | – | 50-80% | 40-70% | > 6 | ≥ 20
C[C@H](CCC(=O)O)[C@H]1CC[C@H]2[C@@H]3[C@@H](OP(=O)([O-])[O-])C[C@@H]4C[C@H](O)CC[C@]4(C)[C@H]3CC[C@]12C.[Na+].[Na+] [compound 7, 7-(Phosphonatooxy)-ursodeoxycholic acid sodium salt] | – | – | – | – | > 6 | –
